Reference: paper PMC3045295

Protein sequences, listed by entry. Tags and fused reporters are not part of them. Residues count along the entry.
UniProt P28908, 19-595: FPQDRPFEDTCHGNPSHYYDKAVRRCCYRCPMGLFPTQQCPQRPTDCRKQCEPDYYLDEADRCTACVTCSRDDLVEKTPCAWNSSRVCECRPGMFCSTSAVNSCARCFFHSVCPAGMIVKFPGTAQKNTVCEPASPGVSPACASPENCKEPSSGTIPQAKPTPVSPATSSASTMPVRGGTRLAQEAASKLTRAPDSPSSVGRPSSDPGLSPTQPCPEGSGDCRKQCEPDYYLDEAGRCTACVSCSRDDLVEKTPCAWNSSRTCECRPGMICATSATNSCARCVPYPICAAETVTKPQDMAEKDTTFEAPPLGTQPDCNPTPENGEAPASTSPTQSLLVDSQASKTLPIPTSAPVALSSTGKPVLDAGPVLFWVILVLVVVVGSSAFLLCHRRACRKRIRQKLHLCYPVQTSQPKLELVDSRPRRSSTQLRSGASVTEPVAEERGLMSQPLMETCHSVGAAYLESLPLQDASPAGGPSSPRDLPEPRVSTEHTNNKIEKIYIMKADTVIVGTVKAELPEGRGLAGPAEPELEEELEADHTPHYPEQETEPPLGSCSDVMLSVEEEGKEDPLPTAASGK

Experiments:
[1] = biological target: CD30 (on Karpas 299 ALCL cells) (human) (UniProt P28908); assay: flow cytometry (cell binding); conditions: PEI-citrate/Cy5-ssDNA without aptamer, PEI N to ssDNA P ratio <=1:1, no binding to Karpas 299 cells; non-covalently incorporated into PEI-citrate nanocores; 2x10^5 cells in 0.5 ml culture medium, 30 min, room temperature; nanocomplexes with PEI N to total oligonucleotide P ratio 1:1; protein on the cell surface; label: 5' Cy5; single-stranded DNA; letters put together from the description
[2] = biological target: CD30 (on Karpas 299 ALCL cells) (human) (UniProt P28908); assay: flow cytometry and fluorescence microscopy (cell binding); conditions: aptamer in PEI-citrate nanocomplex with Cy5-ssDNA reporter, binds Karpas 299, not CD30-negative Jurkat; none stated; non-covalently incorporated into PEI-citrate nanocores; 2x10^5 cells in 0.5 ml culture medium, 30 min, room temperature; nanocomplexes with PEI N to total oligonucleotide P ratio 1:1; protein on the cell surface; label: none on aptamer, Cy5 on co-loaded ssDNA reporter

Sequence	binding result [1]	binding result [2]
CACTTAGTAGTGTACCGCCTT [Cy5-ssDNA reporter (ALK siRNA sense sequence)]	no binding	
GAUUCGUAUGGGUGGGAUCGGGAAGGGCUACGAACACCG [CD30 RNA aptamer]		binds

For at least one entry, the source does not settle the construct or the ends of the probe. Results from cells or extracts need not show a direct contact. For some assays here: No signal at the amounts used counts as a negative. For some assays here: At least one verdict rests on a figure or table, not on a statement of the authors.
